Source: paper PMC10231839, “A glycan receptor kinase facilitates intracellular accommodation of arbuscular mycorrhiza and symbiotic rhizobia in the legume Lotus japonicus” (PLOS Biology, 2023)
No constants are given. Whether binding was seen depends on the method and setting.

Target: Arabidopsis thaliana chitin receptor CERK1 ectodomain (Arabidopsis thaliana) (UniProt A8R7E6)
Assay: SEC; final purification step, HiLoad Superdex 75 16/600 pg, PBS pH 7.4, 500 mM NaCl; mass estimated from the elution volume; both purified

binding: no binding
B1: Arabidopsis thaliana chitin receptor CERK1 ectodomain (domain or fragment, UniProt A8R7E6 24-232)
chain: KCRTSCPLALASYYLENGTTLSVINQNLNSSIAPYDQINFDPILRYNSNIKDKDRIQMGSRVLVPFPCECQPGDFLGHNFSYSVRQEDTYERVAISNYANLTTMESLQARNPFPATNIPLSATLNVLVNCSCGDESVSKDFGLFVTYPLRPEDSLSSIARSSGVSADILQRYNPGVNFNSGNGIVYVPGRDPNGAFPPFKSSKQDGVGA
modifications: N-glycosylated
